Experimental data from patent publication US20080015224A1, “Nitroxide superoxide dismutase mimetics to treat extracellular superoxide dismutase deficiencies” (priority 2006, published 2008).
Some results were stated once for a whole list of compounds, not compound by compound. For at least one compound, name, drawing or mass did not settle the structure.

Test: Lipid solubility: partition of SOD activity between CHCl3 and PBS
Format: physicochemical
Conditions: 50:50 PBS and chloroform
Method: The SOD activities of Ns were evaluated in vitro for their efficacy in dampening O2^−. generated by xanthine (25 μmol/l) plus xanthine oxidase (9 IU/ml). Their lipid solubility was assessed by shaking the Ns in a 50:50 mixture of PBS (Ambion, Austin, Tex.) and chloroform (CHCl3; EM Science, Gibbstown, N.J.), taking an aliquot of the PBS phase, evaporating the CHCl3phase to dryness, reconstituting it in PBS, and assessing the SOD activities in the two solutions. O2^−. was assessed by chemiluminescence with 5 μM lucigenin (AutoLumatPlus LB 953; EG&G, Berthold, Germany). The reduction in the stable peak value for chemiluminescence for each N, relative to vehicle, defined the SOD mimetic activity.

CC1(C)CC(C(N)=O)C(C)(C)N1[O] (stereo not shown) [Compound 3-CP, 3-carbomoyl-proxyl]
ratio of the activity that partitioned into CHCl3 compared with PBS (partition ratio): < 1
